These are yes or no findings as the source states them, for the method shown. Binding seen in cells or lysates may run through a third protein. Binding calls can cover weak binding; strength is not graded here.

Amino acid sequences for entries named in this document (tags omitted). A change or cut given only in a name is not applied to a line headed by its entry. Residues count along the entry.
UniProt P01137: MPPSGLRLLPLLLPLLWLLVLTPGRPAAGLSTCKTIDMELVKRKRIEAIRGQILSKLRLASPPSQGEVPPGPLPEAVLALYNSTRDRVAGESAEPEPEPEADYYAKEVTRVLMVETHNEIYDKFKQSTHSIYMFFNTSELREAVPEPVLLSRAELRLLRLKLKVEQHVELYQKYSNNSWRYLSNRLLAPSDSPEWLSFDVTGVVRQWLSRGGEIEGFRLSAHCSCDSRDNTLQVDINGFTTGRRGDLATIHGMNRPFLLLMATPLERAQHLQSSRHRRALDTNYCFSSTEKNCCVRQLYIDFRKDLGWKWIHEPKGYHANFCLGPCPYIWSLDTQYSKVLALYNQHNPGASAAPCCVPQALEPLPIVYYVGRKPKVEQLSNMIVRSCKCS
UniProt Q61738, residues 34-1179: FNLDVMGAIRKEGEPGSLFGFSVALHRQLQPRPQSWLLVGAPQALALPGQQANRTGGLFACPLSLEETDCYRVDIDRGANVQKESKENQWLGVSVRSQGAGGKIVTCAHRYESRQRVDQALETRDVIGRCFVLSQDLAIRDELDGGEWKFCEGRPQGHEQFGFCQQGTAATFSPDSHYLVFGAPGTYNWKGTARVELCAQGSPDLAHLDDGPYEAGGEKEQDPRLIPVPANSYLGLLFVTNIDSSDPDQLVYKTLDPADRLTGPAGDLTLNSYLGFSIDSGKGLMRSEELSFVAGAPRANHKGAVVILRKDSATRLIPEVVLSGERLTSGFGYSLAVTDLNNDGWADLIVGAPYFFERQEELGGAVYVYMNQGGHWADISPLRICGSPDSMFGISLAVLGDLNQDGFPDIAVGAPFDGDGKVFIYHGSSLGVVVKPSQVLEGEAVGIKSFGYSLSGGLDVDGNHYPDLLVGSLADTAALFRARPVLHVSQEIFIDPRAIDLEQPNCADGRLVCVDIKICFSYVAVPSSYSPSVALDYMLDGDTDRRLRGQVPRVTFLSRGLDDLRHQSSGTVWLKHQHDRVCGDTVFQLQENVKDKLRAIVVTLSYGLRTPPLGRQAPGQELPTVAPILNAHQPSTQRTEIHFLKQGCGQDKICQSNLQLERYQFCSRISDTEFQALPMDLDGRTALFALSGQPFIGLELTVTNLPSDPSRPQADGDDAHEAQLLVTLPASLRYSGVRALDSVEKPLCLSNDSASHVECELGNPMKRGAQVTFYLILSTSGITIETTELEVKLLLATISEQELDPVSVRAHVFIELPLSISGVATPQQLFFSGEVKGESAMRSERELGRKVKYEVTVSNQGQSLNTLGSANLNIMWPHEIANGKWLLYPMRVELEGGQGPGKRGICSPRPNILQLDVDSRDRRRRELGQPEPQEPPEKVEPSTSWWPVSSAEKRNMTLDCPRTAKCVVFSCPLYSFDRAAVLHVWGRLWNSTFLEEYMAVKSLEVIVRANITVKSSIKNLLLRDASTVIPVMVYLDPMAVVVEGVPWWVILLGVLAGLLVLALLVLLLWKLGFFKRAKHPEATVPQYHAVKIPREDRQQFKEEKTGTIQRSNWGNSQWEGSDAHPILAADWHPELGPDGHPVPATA

For this test, the target named is LAP-TGF-β1-RGD^del-GFP (overexpressed in VSMCs) (human) (UniProt P01137). The test is described as follows: co-IP; VSMCs (MOVAS) transfected with the GFP-tagged LAP-TGF-β1 only; endogenous integrin α7; same lysis buffer; antibody against GFP or control IgG, Protein A/G agarose; Western blot.

Regarding “endogenous integrin α7 (VSMCs) (from UniProt Q61738 34-1179) (receptor)”, the binding result is “binds”.
